# Experimental data from article PMC9691929.
# Chains of the proteins cited; added tags and fusions are not shown. Residues count along the entry.
# UniProt P14625, residues 22-803: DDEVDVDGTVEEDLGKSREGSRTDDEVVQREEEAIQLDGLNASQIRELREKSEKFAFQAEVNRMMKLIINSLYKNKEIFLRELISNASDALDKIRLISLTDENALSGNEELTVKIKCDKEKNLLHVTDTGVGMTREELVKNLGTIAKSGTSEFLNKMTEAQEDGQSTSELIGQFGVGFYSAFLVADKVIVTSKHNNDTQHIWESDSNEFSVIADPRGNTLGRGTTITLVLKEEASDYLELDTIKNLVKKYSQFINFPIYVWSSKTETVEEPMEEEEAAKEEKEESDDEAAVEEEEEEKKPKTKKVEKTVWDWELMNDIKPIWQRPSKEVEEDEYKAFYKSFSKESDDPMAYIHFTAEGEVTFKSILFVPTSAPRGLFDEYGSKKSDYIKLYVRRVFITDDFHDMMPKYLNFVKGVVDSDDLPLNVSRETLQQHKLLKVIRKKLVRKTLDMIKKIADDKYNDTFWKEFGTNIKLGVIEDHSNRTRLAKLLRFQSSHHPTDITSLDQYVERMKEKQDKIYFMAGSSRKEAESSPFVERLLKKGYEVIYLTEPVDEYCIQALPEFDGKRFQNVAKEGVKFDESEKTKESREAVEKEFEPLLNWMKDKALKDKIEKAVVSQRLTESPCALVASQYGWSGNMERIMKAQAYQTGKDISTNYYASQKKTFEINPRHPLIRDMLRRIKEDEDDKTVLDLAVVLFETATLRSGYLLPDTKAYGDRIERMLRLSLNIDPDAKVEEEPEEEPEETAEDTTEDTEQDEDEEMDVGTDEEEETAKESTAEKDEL
# UniProt Q969V3, residues 43-563: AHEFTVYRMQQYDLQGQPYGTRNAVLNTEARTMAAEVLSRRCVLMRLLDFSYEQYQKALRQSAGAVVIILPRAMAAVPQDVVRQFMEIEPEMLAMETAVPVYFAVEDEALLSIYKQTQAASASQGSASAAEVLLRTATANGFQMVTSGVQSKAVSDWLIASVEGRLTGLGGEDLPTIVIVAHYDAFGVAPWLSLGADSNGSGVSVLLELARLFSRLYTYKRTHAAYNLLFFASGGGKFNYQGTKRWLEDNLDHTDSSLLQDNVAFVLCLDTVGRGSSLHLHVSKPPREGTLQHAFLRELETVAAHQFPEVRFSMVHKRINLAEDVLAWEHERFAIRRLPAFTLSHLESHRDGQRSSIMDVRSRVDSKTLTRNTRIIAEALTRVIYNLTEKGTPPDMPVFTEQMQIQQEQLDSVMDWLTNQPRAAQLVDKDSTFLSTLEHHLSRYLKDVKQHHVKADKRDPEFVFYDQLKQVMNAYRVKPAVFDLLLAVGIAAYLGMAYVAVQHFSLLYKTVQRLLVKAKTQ
# UniProt P23284, residues 34-216: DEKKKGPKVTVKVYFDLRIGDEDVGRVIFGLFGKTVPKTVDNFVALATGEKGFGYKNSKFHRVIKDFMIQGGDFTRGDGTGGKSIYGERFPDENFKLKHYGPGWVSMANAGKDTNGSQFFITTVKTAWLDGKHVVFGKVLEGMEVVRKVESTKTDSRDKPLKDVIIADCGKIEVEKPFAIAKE
# UniProt Q15005: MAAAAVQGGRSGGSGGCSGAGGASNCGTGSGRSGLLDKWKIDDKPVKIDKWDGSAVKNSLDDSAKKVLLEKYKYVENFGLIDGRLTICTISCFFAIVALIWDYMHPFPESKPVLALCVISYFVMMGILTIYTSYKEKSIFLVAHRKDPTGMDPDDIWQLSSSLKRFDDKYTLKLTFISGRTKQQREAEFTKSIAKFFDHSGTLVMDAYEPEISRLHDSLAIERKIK
# UniProt P61619: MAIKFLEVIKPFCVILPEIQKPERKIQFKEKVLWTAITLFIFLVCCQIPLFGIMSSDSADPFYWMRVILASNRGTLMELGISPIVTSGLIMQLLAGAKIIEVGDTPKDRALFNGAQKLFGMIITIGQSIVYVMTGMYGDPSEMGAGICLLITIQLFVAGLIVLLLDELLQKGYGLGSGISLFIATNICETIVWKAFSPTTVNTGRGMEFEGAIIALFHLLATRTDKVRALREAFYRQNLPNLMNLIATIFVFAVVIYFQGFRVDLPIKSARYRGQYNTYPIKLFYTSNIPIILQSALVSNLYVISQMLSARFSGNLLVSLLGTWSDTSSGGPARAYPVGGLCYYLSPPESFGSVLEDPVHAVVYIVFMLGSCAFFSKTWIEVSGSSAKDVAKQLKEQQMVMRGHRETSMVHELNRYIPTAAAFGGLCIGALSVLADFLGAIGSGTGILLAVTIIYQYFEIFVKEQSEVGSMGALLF
# UniProt Q9UGP8: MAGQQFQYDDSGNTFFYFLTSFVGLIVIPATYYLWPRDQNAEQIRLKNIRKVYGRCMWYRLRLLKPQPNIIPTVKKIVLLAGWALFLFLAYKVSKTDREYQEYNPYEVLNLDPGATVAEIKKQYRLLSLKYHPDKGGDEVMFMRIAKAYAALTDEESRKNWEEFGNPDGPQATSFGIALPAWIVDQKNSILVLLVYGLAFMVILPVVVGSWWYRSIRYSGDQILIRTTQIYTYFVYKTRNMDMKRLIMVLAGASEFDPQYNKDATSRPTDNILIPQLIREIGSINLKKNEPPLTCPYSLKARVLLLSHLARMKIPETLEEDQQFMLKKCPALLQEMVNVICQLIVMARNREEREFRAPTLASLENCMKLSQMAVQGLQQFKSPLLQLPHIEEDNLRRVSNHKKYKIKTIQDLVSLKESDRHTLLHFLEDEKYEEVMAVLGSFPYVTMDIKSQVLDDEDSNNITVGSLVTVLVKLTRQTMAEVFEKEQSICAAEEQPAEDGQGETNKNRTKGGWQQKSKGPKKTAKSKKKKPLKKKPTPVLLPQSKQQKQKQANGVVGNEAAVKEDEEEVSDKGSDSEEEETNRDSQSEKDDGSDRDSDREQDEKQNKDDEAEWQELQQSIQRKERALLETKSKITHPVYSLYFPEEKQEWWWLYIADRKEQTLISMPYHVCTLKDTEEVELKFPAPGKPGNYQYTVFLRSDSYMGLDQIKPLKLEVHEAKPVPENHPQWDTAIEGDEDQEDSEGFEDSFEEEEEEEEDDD
# UniProt P11021, residues 19-654: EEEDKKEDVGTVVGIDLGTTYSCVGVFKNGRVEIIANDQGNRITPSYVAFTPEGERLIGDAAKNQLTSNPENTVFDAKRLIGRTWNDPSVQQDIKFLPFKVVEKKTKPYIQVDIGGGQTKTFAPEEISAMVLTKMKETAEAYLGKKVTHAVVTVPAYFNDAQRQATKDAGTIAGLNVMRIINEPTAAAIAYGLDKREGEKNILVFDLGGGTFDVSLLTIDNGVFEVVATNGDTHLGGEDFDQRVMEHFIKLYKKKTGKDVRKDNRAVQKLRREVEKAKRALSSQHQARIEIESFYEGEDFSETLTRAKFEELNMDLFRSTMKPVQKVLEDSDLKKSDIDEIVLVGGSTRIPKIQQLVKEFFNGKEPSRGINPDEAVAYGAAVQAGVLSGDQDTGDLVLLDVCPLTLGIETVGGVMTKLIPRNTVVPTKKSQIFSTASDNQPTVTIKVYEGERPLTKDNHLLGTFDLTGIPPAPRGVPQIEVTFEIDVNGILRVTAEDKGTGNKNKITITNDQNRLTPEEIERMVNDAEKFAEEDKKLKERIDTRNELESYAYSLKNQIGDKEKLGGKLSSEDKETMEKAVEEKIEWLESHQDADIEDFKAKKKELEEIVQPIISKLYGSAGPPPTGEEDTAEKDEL
# UniProt Q9UBS4, residues 23-358: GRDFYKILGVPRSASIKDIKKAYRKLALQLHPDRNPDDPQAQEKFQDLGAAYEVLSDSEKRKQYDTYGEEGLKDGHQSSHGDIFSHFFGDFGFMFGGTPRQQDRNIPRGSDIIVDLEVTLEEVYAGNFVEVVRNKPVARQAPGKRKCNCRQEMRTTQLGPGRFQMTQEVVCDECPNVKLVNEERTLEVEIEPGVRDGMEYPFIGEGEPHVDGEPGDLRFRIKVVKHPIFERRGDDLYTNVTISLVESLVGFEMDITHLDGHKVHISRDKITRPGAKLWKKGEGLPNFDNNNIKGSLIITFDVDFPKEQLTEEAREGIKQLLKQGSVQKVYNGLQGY
# UniProt P30101, residues 25-505: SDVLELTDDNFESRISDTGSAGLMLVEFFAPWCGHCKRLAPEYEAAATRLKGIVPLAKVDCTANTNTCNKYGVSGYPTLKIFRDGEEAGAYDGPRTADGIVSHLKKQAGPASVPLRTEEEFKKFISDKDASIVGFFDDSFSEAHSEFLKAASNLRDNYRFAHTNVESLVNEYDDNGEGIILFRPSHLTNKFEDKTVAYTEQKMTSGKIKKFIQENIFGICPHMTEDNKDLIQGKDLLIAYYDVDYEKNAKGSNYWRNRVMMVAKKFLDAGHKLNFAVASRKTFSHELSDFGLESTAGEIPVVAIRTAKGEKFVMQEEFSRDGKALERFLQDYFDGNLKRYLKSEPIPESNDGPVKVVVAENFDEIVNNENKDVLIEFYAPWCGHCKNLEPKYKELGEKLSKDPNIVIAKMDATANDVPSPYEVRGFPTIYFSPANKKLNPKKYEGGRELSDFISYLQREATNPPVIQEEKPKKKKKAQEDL
# UniProt P60468: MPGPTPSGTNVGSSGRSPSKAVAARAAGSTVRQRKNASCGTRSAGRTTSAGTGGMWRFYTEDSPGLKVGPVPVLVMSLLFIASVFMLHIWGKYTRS
# UniProt P27824, residues 21-592: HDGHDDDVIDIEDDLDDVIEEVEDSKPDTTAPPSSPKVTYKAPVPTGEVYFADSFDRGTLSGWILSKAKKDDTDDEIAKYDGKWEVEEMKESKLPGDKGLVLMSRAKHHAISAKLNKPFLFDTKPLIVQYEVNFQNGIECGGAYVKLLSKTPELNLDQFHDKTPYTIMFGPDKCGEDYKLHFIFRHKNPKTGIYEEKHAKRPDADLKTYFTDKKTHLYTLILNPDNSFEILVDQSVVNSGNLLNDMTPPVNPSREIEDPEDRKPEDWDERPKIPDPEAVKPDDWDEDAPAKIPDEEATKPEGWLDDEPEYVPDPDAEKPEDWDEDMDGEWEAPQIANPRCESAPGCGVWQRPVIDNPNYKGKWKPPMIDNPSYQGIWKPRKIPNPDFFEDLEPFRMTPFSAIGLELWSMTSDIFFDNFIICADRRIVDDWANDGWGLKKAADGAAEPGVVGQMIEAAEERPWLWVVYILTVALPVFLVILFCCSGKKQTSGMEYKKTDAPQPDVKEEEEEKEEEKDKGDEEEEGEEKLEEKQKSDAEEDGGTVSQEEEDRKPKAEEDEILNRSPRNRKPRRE
# No constants are given. Whether binding was seen depends on the method and setting. In cells and extracts the contact can be indirect. Here binding means that the protein was enriched with, or labelled near, the bait; the list need not be complete. Tags and fused reporters may be left off the sequences shown.
# T1: Hspa13 with a C-terminal Flag (human) (UniProt P48723)
# T1 sequence: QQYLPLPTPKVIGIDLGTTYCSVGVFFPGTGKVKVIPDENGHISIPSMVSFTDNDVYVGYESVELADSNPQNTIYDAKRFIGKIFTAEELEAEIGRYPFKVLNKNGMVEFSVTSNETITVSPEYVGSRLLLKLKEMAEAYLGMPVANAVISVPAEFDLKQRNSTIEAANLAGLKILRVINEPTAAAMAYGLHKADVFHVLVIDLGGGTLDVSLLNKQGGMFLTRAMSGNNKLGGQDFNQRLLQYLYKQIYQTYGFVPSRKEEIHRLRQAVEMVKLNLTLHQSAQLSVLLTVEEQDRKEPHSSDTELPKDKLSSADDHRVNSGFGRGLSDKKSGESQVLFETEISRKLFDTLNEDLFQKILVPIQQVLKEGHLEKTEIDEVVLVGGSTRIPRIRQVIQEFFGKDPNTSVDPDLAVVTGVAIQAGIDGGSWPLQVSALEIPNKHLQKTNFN
# Biological target: T1, Hspa13 with a C-terminal Flag (human)
# Test: affinity purification with mass spectrometry; HEK293T overexpressing Hspa13^Flag or mock (eGFP), crosslinked in cells with 1 mM DSP for 30 min, quenched, lysed; M2 anti-Flag Dynabeads; stringent RIPA washes; TMT, MuDPIT; 5% FDR
row,binding,Molecule
1,binds,Grp94/HSPB90B1 (from UniProt P14625 22-803)
2,binds,NCLN (from UniProt Q969V3 43-563)
3,binds,PPIB (from UniProt P23284 34-216)
4,binds,SPCS2 (from UniProt Q15005 1-226)
5,binds,Sec61a1 (from UniProt P61619 1-476)
6,binds,Sec63 (from UniProt Q9UGP8 1-760)
7,binds,"binding immunoglobulin protein (BiP), endogenous (from UniProt P11021 19-654)"
8,binds,"RPN1 (protein, UniProt P04843 24-607) ASSEAPPLINEDVKRTVDLSSHLAKVTAEVVLAHLGGGSTSRATSFLLALEPELEARLAHLGVQVKGEDEEENNLEVRETKIKGKSGRFFTVKLPVALDPGAKISVIVETVYTHVLHPYPTQITQSEKQFVVFEGNHYFYSPYPTKTQTMRVKLASRNVESYTKLGNPTRSEDLLDYGPFRDVPAYSQDTFKVHYENNSPFLTITSMTRVIEVSHWGNIAVEENVDLKHTGAVLKGPFSRYDYQRQPDSGISSIRSFKTILPAAAQDVYYRDEIGNVSTSHLLILDDSVEMEIRPRFPLFGGWKTHYIVGYNLPSYEYLYNLGDQYALKMRFVDHVFDEQVIDSLTVKIILPEGAKNIEIDSPYEISRAPDELHYTYLDTFGRPVIVAYKKNLVEQHIQDIVVHYTFNKVLMLQEPLLVVAAFYILFFTVIIYVRLDFSITKDPAAEARMKVACITEQVLTLVNKRIGLYRHFDETVNRYKQSRDISTLNSGKKSLETEHKALTSEIALLQSRLKTEGSDLCDRVSEMQKLDAQVKELVLKSAVEAERLVAGKLKKDTYIENEKLISGKRQELVTKIDHILDAL"
9,binds,"STT3B (protein, UniProt Q8TCJ2 1-826) MAEPSAPESKHKSSLNSSPWSGLMALGNSRHGHHGPGAQCAHKAAGGAAPPKPAPAGLSGGLSQPAGWQSLLSFTILFLAWLAGFSSRLFAVIRFESIIHEFDPWFNYRSTHHLASHGFYEFLNWFDERAWYPLGRIVGGTVYPGLMITAGLIHWILNTLNITVHIRDVCVFLAPTFSGLTSISTFLLTRELWNQGAGLLAACFIAIVPGYISRSVAGSFDNEGIAIFALQFTYYLWVKSVKTGSVFWTMCCCLSYFYMVSAWGGYVFIINLIPLHVFVLLLMQRYSKRVYIAYSTFYIVGLILSMQIPFVGFQPIRTSEHMAAAGVFALLQAYAFLQYLRDRLTKQEFQTLFFLGVSLAAGAVFLSVIYLTYTGYIAPWSGRFYSLWDTGYAKIHIPIIASVSEHQPTTWVSFFFDLHILVCTFPAGLWFCIKNINDERVFVALYAISAVYFAGVMVRLMLTLTPVVCMLSAIAFSNVFEHYLGDDMKRENPPVEDSSDEDDKRNQGNLYDKAGKVRKHATEQEKTEEGLGPNIKSIVTMLMLMLLMMFAVHCTWVTSNAYSSPSVVLASYNHDGTRNILDDFREAYFWLRQNTDEHARVMSWWDYGYQIAGMANRTTLVDNNTWNNSHIALVGKAMSSNETAAYKIMRTLDVDYVLVIFGGVIGYSGDDINKFLWMVRIAEGEHPKDIRESDYFTPQGEFRVDKAGSPTLLNCLMYKMSYYRFGEMQLDFRTPPGFDRTRNAEIGNKDIKFKHLEEAFTSEHWLVRIYKVKAPDNRETLDHKPRVTNIFPKQKYLSKKTTKRKRGYIKNKLVFKKGKKISKKTV"
10,binds,"GANAB (protein, UniProt Q14697 29-944) ITLAVDRSNFKTCEESSFCKRQRSIRPGLSPYRALLDSLQLGPDSLTVHLIHEVTKVLLVLELQGLQKNMTRFRIDELEPRRPRYRVPDVLVADPPIARLSVSGRDENSVELTMAEGPYKIILTARPFRLDLLEDRSLLLSVNARGLLEFEHQRAPRVSQGSKDPAEGDGAQPEETPRDGDKPEETQGKAEKDEPGAWEETFKTHSDSKPYGPMSVGLDFSLPGMEHVYGIPEHADNLRLKVTEGGEPYRLYNLDVFQYELYNPMALYGSVPVLLAHNPHRDLGIFWLNAAETWVDISSNTAGKTLFGKMMDYLQGSGETPQTDVRWMSETGIIDVFLLLGPSISDVFRQYASLTGTQALPPLFSLGYHQSRWNYRDEADVLEVDQGFDDHNLPCDVIWLDIEHADGKRYFTWDPSRFPQPRTMLERLASKRRKLVAIVDPHIKVDSGYRVHEELRNLGLYVKTRDGSDYEGWCWPGSAGYPDFTNPTMRAWWANMFSYDNYEGSAPNLFVWNDMNEPSVFNGPEVTMLKDAQHYGGWEHRDVHNIYGLYVHMATADGLRQRSGGMERPFVLARAFFAGSQRFGAVWTGDNTAEWDHLKISIPMCLSLGLVGLSFCGADVGGFFKNPEPELLVRWYQMGAYQPFFRAHAHLDTGRREPWLLPSQHNDIIRDALGQRYSLLPFWYTLLYQAHREGIPVMRPLWVQYPQDVTTFNIDDQYLLGDALLVHPVSDSGAHGVQVYLPGQGEVWYDIQSYQKHHGPQTLYLPVTLSSIPVFQRGGTIVPRWMRVRRSSECMKDDPITLFVALSPQGTAQGELFLDDGHTFNYQTRQEFLLRRFSFSGNTLVSSSADPEGHFETPIWIERVVIIGAGKPAAVVLQTKGSPESRLSFQHDPETSVLVLRKPGINVASDWSIHLR"

# The remaining lines, values behind:
row,Molecule,binding
1,ERdj3/DNAJB11 (from UniProt Q9UBS4 23-358),binds
2,Erp29 (from UniProt P30040 33-261),binds
3,PDIA3 (from UniProt P30101 25-505),binds
4,Sec61b (from UniProt P60468 1-96),binds
5,calnexin (from UniProt P27824 21-592),binds
6,"SEC11A (protein, UniProt P67812 1-179) MLSLDFLDDVRRMNKRQLYYQVLNFGMIVSSALMIWKGLMVITGSESPIVVVLSGSMEPAFHRGDLLFLTNRVEDPIRVGEIVVFRIEGREIPIVHRVLKIHEKQNGHIKFLTKGDNNAVDDRGLYKQGQHWLEKKDVVGRARGFVPYIGIVTILMNDYPKFKYAVLFLLGLFVLVHRE",binds
7,"SPCS3 (protein, UniProt P61009 1-180) MNTVLSRANSLFAFSLSVMAALTFGCFITTAFKDRSVPVRLHVSRIMLKNVEDFTGPRERSDLGFITFDITADLENIFDWNVKQLFLYLSAEYSTKNNALNQVVLWDKIVLRGDNPKLLLKDMKTKYFFFDDGNGLKGNRNVTLTLSWNVVPNAGILPLVTGSGHVSVPFPDTYEITKSY",binds
8,"DDOST (protein, UniProt P39656 43-456) SGPRTLVLLDNLNVRETHSLFFRSLKDRGFELTFKTADDPSLSLIKYGEFLYDNLIIFSPSVEDFGGNINVETISAFIDGGGSVLVAASSDIGDPLRELGSECGIEFDEEKTAVIDHHNYDISDLGQHTLIVADTENLLKAPTIVGKSSLNPILFRGVGMVADPDNPLVLDILTGSSTSYSFFPDKPITQYPHAVGKNTLLIAGLQARNNARVIFSGSLDFFSDSFFNSAVQKAAPGSQRYSQTGNYELAVALSRWVFKEEGVLRVGPVSHHRVGETAPPNAYTVTDLVEYSIVIQQLSNGKWVPFDGDDIQLEFVRIDPFVRTFLKKKGGKYSVQFKLPDVYGVFQFKVDYNRLGYTHLYSSTQVSVRPLQHTQYERFIPSAYPYYASAFSMMLGLFIFSIVFLHMKEKEKSD",binds
9,"MAGT1 (protein, UniProt Q9H0U3 30-335) QRKKEMVLSEKVSQLMEWTNKRPVIRMNGDKFRRLVKAPPRNYSVIVMFTALQLHRQCVVCKQADEEFQILANSWRYSSAFTNRIFFAMVDFDEGSDVFQMLNMNSAPTFINFPAKGKPKRGDTYELQVRGFSAEQIARWIADRTDVNIRVIRPPNYAGPLMLGLLLAVIGGLVYLRRSNMEFLFNKTGWAFAALCFVLAMTSGQMWNHIRGPPYAHKNPHTGHVNYIHGSSQAQFVAETHIVLLFNGGVTLGMVLLCEAATSDMDIGKRKIMCVAGIGLVVLFFSWMLSIFRSKYHGYPYSFLMS",binds
10,"STT3A (protein, UniProt P46977 1-705) MTKFGFLRLSYEKQDTLLKLLILSMAAVLSFSTRLFAVLRFESVIHEFDPYFNYRTTRFLAEEGFYKFHNWFDDRAWYPLGRIIGGTIYPGLMITSAAIYHVLHFFHITIDIRNVCVFLAPLFSSFTTIVTYHLTKELKDAGAGLLAAAMIAVVPGYISRSVAGSYDNEGIAIFCMLLTYYMWIKAVKTGSICWAAKCALAYFYMVSSWGGYVFLINLIPLHVLVLMLTGRFSHRIYVAYCTVYCLGTILSMQISFVGFQPVLSSEHMAAFGVFGLCQIHAFVDYLRSKLNPQQFEVLFRSVISLVGFVLLTVGALLMLTGKISPWTGRFYSLLDPSYAKNNIPIIASVSEHQPTTWSSYYFDLQLLVFMFPVGLYYCFSNLSDARIFIIMYGVTSMYFSAVMVRLMLVLAPVMCILSGIGVSQVLSTYMKNLDISRPDKKSKKQQDSTYPIKNEVASGMILVMAFFLITYTFHSTWVTSEAYSSPSIVLSARGGDGSRIIFDDFREAYYWLRHNTPEDAKVMSWWDYGYQITAMANRTILVDNNTWNNTHISRVGQAMASTEEKAYEIMRELDVSYVLVIFGGLTGYSSDDINKFLWMVRIGGSTDTGKHIKENDYYTPTGEFRVDREGSPVLLNCLMYKMCYYRFGQVYTEAKRPPGFDRVRNAEIGNKDFELDVLEEAYTTEHWLVRIYKVKDLDNRGLSRT",binds
11,"Hsp47 (protein, UniProt P50454 19-418) AEVKKPAAAAAPGTAEKLSPKAATLAERSAGLAFSLYQAMAKDQAVENILVSPVVVASSLGLVSLGGKATTASQAKAVLSAEQLRDEEVHAGLGELLRSLSNSTARNVTWKLGSRLYGPSSVSFADDFVRSSKQHYNCEHSKINFRDKRSALQSINEWAAQTTDGKLPEVTKDVERTDGALLVNAMFFKPHWDEKFHHKMVDNRGFMVTRSYTVGVMMMHRTGLYNYYDDEKEKLQIVEMPLAHKLSSLIILMPHHVEPLERLEKLLTKEQLKIWMGKMQKKAVAISLPKGVVEVTHDLQKHLAGLGLTEAIDKNKADLSRMSGKKDLYLASVFHATAFELDTDGNPFDQDIYGREELRSPKLFYADHPFIFLVRDTQSGSLLFIGRLVRPKGDKMRDEL",binds
